Test results published in patent publication US20230364265A1.
These are yes or no findings as the source states them, for the method shown. Some results given as binding are weak or reduced against the parent protein; the word gives no strength. Sequences can lack the tags named with a protein.

Amino acid sequences for entries named in this document (tags omitted). Residues count along the entry.
UniProt P06127, residues 25-372: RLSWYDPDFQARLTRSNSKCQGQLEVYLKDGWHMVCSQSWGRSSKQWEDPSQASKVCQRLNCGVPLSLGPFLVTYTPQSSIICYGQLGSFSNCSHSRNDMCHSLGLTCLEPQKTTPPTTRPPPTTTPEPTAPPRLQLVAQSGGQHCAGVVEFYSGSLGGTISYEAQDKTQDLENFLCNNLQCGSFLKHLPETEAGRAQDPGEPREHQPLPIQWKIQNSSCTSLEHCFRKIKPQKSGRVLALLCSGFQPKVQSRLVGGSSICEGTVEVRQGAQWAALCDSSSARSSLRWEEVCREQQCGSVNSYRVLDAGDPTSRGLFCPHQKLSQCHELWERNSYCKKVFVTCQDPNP

Assays:
[1] = molecular target: labeled CD5 protein (Alexa647-conjugated CD5 protein) (UniProt P06127); assay: flow cytometry, labeled CD5 on transfected HEK293T cells
[2] = molecular target: labeled CD5 protein (Alexa647-conjugated CD5 protein) (UniProt P06127); assay: flow cytometry, Alexa647-conjugated CD5 protein on transfected 293 cells

B1: CD5-intron-fcr-PI3K (ATAK) recombinant chimeric fusion receptor protein, expressed on HEK293T cells from LINE-1-plasmid_CD5-intron-FCR-PI3K (receptor)
chain: EIQLVQSGGGLVKPGGSVRISCAASGYTFTNYGMNWVRQAPGKGLEWMGWINTHTGEPTYADSFKGRFTFSLDDSKNTAYLQINSLRAEDTAVYFCTRRGYDWYFDVWGQGTTVTVSSGGGGSGGGGSGGGGSDIQMTQSPSSLSASVGDRVTITCRASQDINSYLSWFQQKPGKAPKTLIYRANRLESGVPSRFSGSGSGTDYTLTISSLQYEDFGIYYCQQYDESPWTFGGGTKLEIKSGGGGSGALSNSIMYFSHFVPVFLPAKPTTTPAPRPPTPAPTIASQPLSLRPEACRPAAGGAVHTRGLDIYIWAPLAGTCGVLLLSLVITLYCRRLKIQVRKAAITSYEKSDGVYTGLSTRNQETYETLKHEKPPQGSGSYEDMRGILYAAPQLRSIRGQPGPNHEEDADSYENM
- binding [1]: binds
- binding [2]: binds
